Drawing on PubChem BioAssay AID2685 (National Center for Advancing Translational Sciences (NCATS), 2010), this text covers cell number change and AC50 for 58 molecules.

In general, AC50 refers to the midpoint of the concentration-response curve, whichever way the signal moves. Low readings indicate greater potency, high ones weaker potency.

The structures appear in SMILES notation. Some of the results follow. The main result of the screen is listed elsewhere. These columns were measured beside it and carry no call. Most of these compounds were active or inconclusive in the main read-out, so they are no random draw. Words in brackets tell the shape of the fitted curve; partial curves, single points and poor fits give uncertain potencies.

This experiment is described as follows: qHTS Assay for Lipid Storage Modulators in Drosophila S3 Cells.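 As to cell number change: cells counted by Cell Tracker Red CMTPX staining in the red channel.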 The settings on record: BODIPY lipid droplet fluorescence, 18-24 h; for cell number change: measured here: cell count max response, cells fed with added oleic acid. The method, boiled down:
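Drosophila S3 cells loaded with oleic acid (400 uM, as added) and compounds at several concentrations; lipid droplets imaged by 488-nm laser-scanning cytometry, 500–530 nm intensity and object ratio to cell channel. Percent activity normalized to 20 uM Triacsin C.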

Where [1] appears, read: measured here: lipid fluorescence (Fed channel) AC50, cells fed with added oleic acid.
Setting [2] is: measured here: cell number channel AC50, cells fed with added oleic acid.

`O=C(/C=C/c1cccc(C(F)(F)F)c1)N1CCN(c2ccccn2)CC1`: the cell number change was found to be 17.9%. Under setting [1], the AC50 was 6.51 µM [falling, single point]. For `COC(C)(C)[C@]12CC(O)(c3ccccc3)ON1[C@H]1CCCCC1N2O` (stereo not given in full), the cell number change was found to be 2.59%. In addition, under setting [1], the AC50 is 32.6 µM [falling, partial curve, poor fit]. Take `O=C1NC(c2ccccc2)Oc2ccccc21` (stereo not given): the cell number change came to 8.79%.

On to `CCOC(=O)CN1CCc2c(C)nc3c(-c4ccc(OC)c(OC)c4)cnn3c21`, for which the half-maximal activity concentration (AC50) under setting [1] is 6.51 µM [rising, single point]. On to `O=C(OCc1nnc(-c2ccccc2)o1)C1CC(=O)N(c2ccccc2)C1` (stereo not given), for which the cell number change came out at 7.92%. Besides, the concentration at half-maximal activity (AC50) under setting [1] is 6.51 µM [falling, single point]. For the molecule `COc1ccc(OCC(=O)NCCCNC(=O)COc2ccc(OC)cc2)cc1`, the cell number change is -3.63%. For the same molecule, the AC50 under setting [1] was 6.51 µM [rising, partial curve, poor fit]. Take `CN(C)C(=O)C12CCC(C)(C(=O)C1Br)C2(C)C` (stereo not given): the cell number change is -22.5%. On to `COc1cccc(C2=CC(=O)C[C@H](c3ccc4c(c3)OCO4)C2)c1OC`, for which the cell number change was -30.2%. In addition, under setting [2], the AC50 is 0.651 µM [falling, partial curve, poor fit]. Moreover, the AC50 under setting [1] is 0.58 µM [falling, partial curve]. On to `COc1ccc(/C=C(/NC(=O)c2ccccc2)C(=O)NCc2ccco2)cc1`, for which the cell number change turned out to be 3.85%.

As to `CCOC(=O)c1cc(-c2ccccc2C)nn1Cc1cc(C)no1`, the cell number change was -26.2%. Further, the half-maximal activity concentration (AC50) under setting [1] is 1.46 µM [rising, partial curve, poor fit]. For `N#CC(C(=O)Nc1ccc(Cl)c(Cl)c1)=C1Nc2ccccc2N1`, the cell number change is -72.2%. Besides, the AC50 under setting [2] is 25.9 µM [falling, partial curve]. Moreover, the AC50 under setting [1] is 23.1 µM [falling, partial curve].

As for `Cc1ccc(NCc2nnc(SCC(=O)NCCc3ccccc3)n2C)cc1`, the cell number change was 45.1%. In addition, the AC50 under setting [2] was 8.2 µM [rising, partial curve, poor fit].

In the case of `Cc1cc(C)c(S(=O)(=O)N2CCN(C(=O)C3CC3)CC2)c(C)c1`, the cell number change is -2.81%.

Turning to `CSc1ccc(S(=O)(=O)NC2CCCCCC2)cc1`, the AC50 under setting [2] was 6.51 µM [rising, single point]. In the case of `OC(CNCCNc1ncccc1C(F)(F)F)Cn1ccc2ccccc21` (stereo not given), the cell number change was -18.3%. The AC50 under setting [1] is 0.13 µM [falling, full curve, poor fit]. For the molecule `O=C(Nc1ccccc1C(=O)NC1CCCCC1)c1ccccc1`, the cell number change came out at 28%. Moreover, the concentration at half-maximal activity (AC50) under setting [1] was 2.06 µM [rising, full curve]. Regarding `CCN(CC)S(=O)(=O)c1ccc(NC(=O)CC(NC(C)=O)c2ccccc2)cc1` (stereo not given), the cell number change is 11.2%. For the same molecule, the AC50 under setting [1] is 6.51 µM [falling, single point]. With `CCOC(=O)N1CCC(Nc2c(OCC)c(=O)c2=O)CC1`, the cell number change turned out to be 18.1%. In addition, the concentration at half-maximal activity (AC50) under setting [1] was 1.16 µM [rising, single point]. Turning to `COc1ccc(N(CC(=O)N2CCCCCC2)S(=O)(=O)c2ccccc2[N+](=O)[O-])c(OC)c1`, the cell number change is -21.9%. Also, under setting [1], the concentration at half-maximal activity (AC50) was 6.51 µM [falling, single point].

Consider `O=C1C2C(C(=O)N1CCc1ccccc1)C1C=CC2C12CC2` (stereo not given), for which the AC50 under setting [1] is 0.058 µM [falling, full curve, poor fit]. As to `CCC(Sc1nc2ncnc(N)c2[nH]1)C(=O)O` (stereo not given), the cell number change was 8.3%. Further, the half-maximal activity concentration (AC50) under setting [2] was 5.8 µM [rising, single point]. With `COCC(=O)N/N=C\c1cccc(OC)c1OC/C=C/c1ccccc1`, the cell number change was -48.5%. Also, the half-maximal activity concentration (AC50) under setting [2] is 29.1 µM [falling, single point].

In the case of `CCCN(CC(=O)Nc1ccccc1C)C(=O)C1CC(=O)N(c2cccc(C)c2C)C1` (stereo not given), the cell number change is -11.8%. Under setting [1], the half-maximal activity concentration (AC50) is 20.6 µM [rising, partial curve]. With `CCOc1cc(-n2cnnn2)c(OCC)cc1NC(=O)c1cnccn1`, the cell number change turned out to be 22.6%. Under setting [1], the AC50 is 6.51 µM [rising, single point].

Turning to `Cc1cc(-c2ccccc2)c2c3c(cn2n1)c(=O)n(C)c(=O)n3C`, the concentration at half-maximal activity (AC50) under setting [1] was 0.146 µM [falling, full curve, poor fit].

Turning to `O=C1N(c2ccccc2C(F)(F)F)OC1(Cc1ccccc1)c1ccccc1` (stereo not given), the cell number change is -57.3%. The AC50 under setting [2] was 16.4 µM [falling, partial curve].

As for `CCOC(=O)c1[nH]c(C)c(C(=O)NCCc2ccc(OC)cc2)c1C`, the cell number change was 58%. Besides, under setting [2], the AC50 was 5.17 µM [rising, full curve]. In addition, the AC50 under setting [1] was 5.17 µM [rising, full curve]. `Cc1ccn2cc(CSc3ccccc3N)nc2c1`: the cell number change came out at 17.6%. Also, the concentration at half-maximal activity (AC50) under setting [1] is 18.4 µM [rising, single point].

For `COc1ccc2nc(Nc3nc(CSc4nnc(C)s4)cc(=O)[nH]3)nc(C)c2c1`, the half-maximal activity concentration (AC50) under setting [1] is 0.82 µM [rising, partial curve].

As for `CCOc1ccc(NC(=O)Nc2cc(OCC(F)(F)F)cc(OCC(F)(F)F)c2)cc1`, the AC50 under setting [1] was 2.59 µM [falling, full curve]. As to `CCC1CCCCN1C(=O)CSc1nc2c(cnn2-c2ccc(C)cc2)c(=O)[nH]1` (stereo not given), the cell number change was found to be 32.9%. For the same molecule, the half-maximal activity concentration (AC50) under setting [2] was 18.4 µM [rising, partial curve, poor fit]. As for `COc1ccc(C(C[N+](=O)[O-])n2nc(C)cc2C)cc1` (stereo not given), the half-maximal activity concentration (AC50) under setting [1] was 5.8 µM [falling, full curve]. On to `OC(Cn1ccnc1)c1ccc(Cl)cc1Cl` (stereo not given), for which the cell number change stood at 56%. The half-maximal activity concentration (AC50) under setting [2] was 5.17 µM [rising, full curve]. Under setting [1], the AC50 is 5.17 µM [rising, single point].

Turning to `CCCCn1c(N)c(N(CCOC)C(=O)CSCc2ccc(C)cc2)c(=O)[nH]c1=O`, the cell number change turned out to be 48.5%. In addition, under setting [2], the half-maximal activity concentration (AC50) is 25.9 µM [rising, single point]. Take `O=S1(=O)N=C(N/N=C/c2cccs2)c2ccccc21`: the cell number change amounted to 0.702%. For the molecule `COc1cccc(N2C(=O)C3CCCN3C2c2ccc(F)cc2)c1` (stereo not given), the half-maximal activity concentration (AC50) under setting [1] is 1.3 µM [rising, full curve, poor fit]. As for `Cc1n[nH]c(C)c1CCc1nc2c3ccccc3nc(SCC(=O)Nc3ccccc3F)n2n1`, the cell number change was -64.1%. Moreover, the concentration at half-maximal activity (AC50) under setting [1] is 0.13 µM [rising, full curve, poor fit]. Regarding `O=C(COC(=O)/C=C/c1cccc(C(F)(F)F)c1)NC(c1ccccc1)c1ccccc1`, the cell number change was -15.1%. Moreover, the half-maximal activity concentration (AC50) under setting [2] was 0.0731 µM [falling, full curve, poor fit]. The half-maximal activity concentration (AC50) under setting [1] is 0.0651 µM [falling, full curve, poor fit].

As to `Cc1cccc(C)c1NC(=O)CNCC(=O)N(C)C`, the AC50 under setting [1] is 5.17 µM [falling, single point]. For `COc1ccc(S(=O)(=O)NCc2ccncc2)cc1OC`, the cell number change is -20.1%. For the same molecule, the AC50 under setting [1] is 2.31 µM [rising, single point]. In the case of `Cc1cc(C(=O)CSc2nncs2)c(C)n1-c1ccc2c(c1)OCO2`, the half-maximal activity concentration (AC50) under setting [2] is 0.651 µM [rising, single point]. As to `COc1ccc2c(c1)OC[C@H]1[C@@H]2N2C(=O)CNC(=O)[C@@]2(C)[C@H]1c1ccccc1`, the cell number change was -22.6%. Under setting [1], the half-maximal activity concentration (AC50) was 2.06 µM [falling, single point]. With `O=C(NCCc1ccccc1F)C1CCCN(c2nc3ccccc3s2)C1` (stereo not given), the cell number change worked out at 7.26%. Further, under setting [1], the half-maximal activity concentration (AC50) was 23.1 µM [falling, single point]. `CC(=O)N1CC(=O)N(Cc2ccccc2)/C(=C/c2ccccc2)C1=O`: the cell number change is -50%. The AC50 under setting [2] is 2.59 µM [falling, full curve]. For the molecule `COc1ccc(CCNC(=O)CN2CCC(C)CC2)cc1OC`, the cell number change amounted to 51%. In addition, the AC50 under setting [2] is 29.1 µM [rising, single point]. The AC50 under setting [1] is 6.51 µM [rising, single point]. With `O=C(c1cnn2c(C(F)F)cc(C3CC3)nc12)N1CCc2ccccc2C1`, the cell number change was -5.36%. Also, the half-maximal activity concentration (AC50) under setting [1] is 1.64 µM [rising, partial curve]. Take `O=C(CN1CCN(S(=O)(=O)c2ccccc2C(F)(F)F)CC1)NCc1cccs1`: the cell number change is -12.4%. Take `COc1ccc(S(=O)(=O)N/N=C\c2ccc3c(c2)OCO3)c(OC)c1`: the cell number change is -30.2%. Further, the AC50 under setting [2] is 13 µM [falling, single point]. Further, the half-maximal activity concentration (AC50) under setting [1] is 20.6 µM [falling, partial curve]. Turning to `Cc1ccc(S(=O)(=O)N2CCN(S(=O)(=O)N3CCOCC3)CC2)cc1C`, the cell number change was -8.05%. Besides, the AC50 under setting [1] was 6.51 µM [falling, single point]. As for `COc1ccc(CNC(=O)COc2ccccc2C(=O)c2cnn(-c3ccccc3)c2)cc1OC`, the cell number change was -1.42%. Under setting [1], the AC50 was 7.31 µM [falling, single point]. In the case of `CCN(CC)c1ccc(C2CC(=O)NC3=C2C(=O)CC(C)(C)C3)cc1` (stereo not given), the cell number change was 1.76%. Besides, the AC50 under setting [1] was 0.082 µM [falling, full curve, poor fit]. In the case of `COc1ccc(OC)c(-c2nc(C(=O)NCC3CCCO3)cc3c2[nH]c2ccccc23)c1` (stereo not given), the cell number change is -30.7%. In addition, under setting [2], the concentration at half-maximal activity (AC50) is 8.2 µM [falling, partial curve, poor fit]. In addition, under setting [1], the half-maximal activity concentration (AC50) is 0.82 µM [rising, single point]. On to `CCc1ccc2c(c1)C(O)(CC(=O)c1cccs1)C(=O)N2` (stereo not given), for which the cell number change was determined as 6.38%. For the same molecule, the concentration at half-maximal activity (AC50) under setting [1] is 2.91 µM [rising, single point].

As to `COc1ccc([N+](=O)[O-])cc1NC(=O)c1ccc(Br)s1`, the cell number change amounted to 28.4%. Besides, the AC50 under setting [2] was 1.16 µM [rising, full curve, poor fit]. Also, the AC50 under setting [1] was 0.651 µM [rising, full curve].

`COCCNC(=O)C1=C(N)C(C(=O)Nc2ccc(C)c(S(=O)(=O)N3CCCCC3)c2)SC1=Nc1ccc(C)cc1C` (stereo not given): under setting [2], the AC50 was 0.184 µM [rising, full curve, poor fit]. Take `Cc1cc(N2CCC(C)CC2)nc(NCc2ccccc2)n1`: the cell number change is -45.3%. Besides, under setting [2], the AC50 is 20.6 µM [falling, single point]. The AC50 under setting [1] was 4.61 µM [falling, partial curve, poor fit].

Regarding `COc1cc(C#N)ccc1OC(=O)c1cccc(S(=O)(=O)N2CCN(C)CC2)c1`, the cell number change was -99.6%. The AC50 under setting [2] was 29.1 µM [falling, single point]. The half-maximal activity concentration (AC50) under setting [1] is 20.6 µM [falling, single point]. Turning to `CCC(=O)N1CCc2cc(Br)cc(S(=O)(=O)N3CCC(C(=O)NC(C)(C)C)CC3)c21`, the cell number change was -2.86%. Besides, the AC50 under setting [1] was 6.51 µM [rising, partial curve].
